The record followed here is article PMC8170675, “Allostery through DNA drives phenotype switching”.

For this series, the target named is T1, ComK (Bacillus subtilis) (UniProt P40396).
T1 sequence: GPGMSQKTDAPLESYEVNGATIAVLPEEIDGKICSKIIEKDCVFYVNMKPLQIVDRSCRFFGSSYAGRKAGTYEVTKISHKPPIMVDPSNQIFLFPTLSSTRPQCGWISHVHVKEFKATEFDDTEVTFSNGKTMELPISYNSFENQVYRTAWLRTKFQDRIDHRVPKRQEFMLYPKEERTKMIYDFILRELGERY
In words: smFRET. Particulars: amino-C6-dT/dA at dye sites, smFRET: room temperature, 50 mM L-Arg, 20 mM DTT, recombinant protein, label: AlexaFluor 488 / AlexaFluor 594.

The exact form of at least one protein or probe is not confirmed. At least one verdict was read from the data and is not stated in words by the source. Where a protein sequence is shown, tags need not be part of it.

Consider “GATGTGCGGAGAAAAGGCCGTTTTTATATGTGAAAAGGCCGTTTTTACCAATAGATC (double strand) [addAB 2 boxes]”, for which, where the note is “Hill exponent in figure only”, the binding result is reported as “binds”.

As to “GATGTGCGGAGAAAAGGCCGTTTTTATATGTGAAAAGGCCGTTTTTATATGTGAAAAGGCCGTTTTTACCAATAGATC (double strand) [addAB 3 boxes]”, the binding result (Hill exponent in figure only) is recorded as “binds”.

For the sequence “GATGTGCGGAGAAAAGGCCGTTTTTATATGTGAAAAGGCCGTTTTTATATGTGAAAAGGCCGTTTTTATATGTGAAAAGGCCGTTTTTACCAATAGATC (double strand) [addAB 4 boxes]”, the binding result (Hill exponent in figure only) is “binds”.

For the sequence “GATGTGCGGAGATAATCAGCTTTTTATATGTGAAAAGGCCGTTTTTACCAATAGATC (double strand) [addAB2: box 2 labelled]”, where the note is “value cut off in the material”, the binding result is given as “binds”.
